In PubChem BioAssay AID493014 (National Center for Advancing Translational Sciences (NCATS), 2011) one finds AC50 data, which are given here for 40 compounds.

The assay is described as follows: qHTS Assay to Find Inhibitors of Chronic Active B-Cell Receptor Signaling. The note with it: ABC-DLBCL IkBa-CBG/CBR reporter, luminescence ratio (green luciferase fused to IkBa over red control in TMD8 lymphoma cells), 4 h. In a few lines:
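Cell line TMD8 (human ABC DLBCL), stably expressing tet-inducible CBG68-IkBa fusion and CBR; IMDM/0.5% FBS; cpd up to 46 uM; dox induction, 4 h, 37C/5% CO2; dual luminescence; green/red ratio; MG132 control.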
(In general: Quantitative high-throughput screening tests each substance at several concentrations.)

Setting [1] is: measured here: CBR red luminescence, cell number.
Setting [2] is: measured here: IkBa-CBG green luminescence.

SMILES strings stand for the structures. The list shows a part of the results. These are further read-outs of the screen, such as a control signal, another cell line or another target. No call is given for them. The list favours compounds with an active or inconclusive main result. Words in brackets tell the shape of the fitted curve; partial curves, single points and poor fits give uncertain potencies.

By AC50 is commonly meant the midpoint of the concentration-response curve, whichever way the signal moves. Turning to `O=C(NC(=O)c1ccccc1)NC(=O)c1ccccc1`, the AC50 under setting [1] was 23.1 µM [falling, single point].
Consider `COc1ccc(C(=O)Nc2cccc3ccccc23)cc1`, for which the AC50 under setting [1] was 20 µM [falling, partial curve, poor fit].
Consider `C/C(=N/NC(=O)CNC(=O)c1ccncc1)c1ccc(Cl)cc1`, for which the AC50 under setting [1] was 35.5 µM [rising, single point].
For `CC1(C)COC(c2ccc(F)c([N+](=O)[O-])c2)=N1`, the AC50 reads like this: under setting [1], 29.1 µM [falling, single point]; under setting [2], 13 µM [rising, partial curve, poor fit].
Consider `CC(C)OC(=O)/C(C#N)=C/c1cn(Cc2ccccc2)c2ccccc12`, for which, under setting [1], the AC50 is 6.51 µM [rising, partial curve, poor fit].
Turning to `COc1ccc(/C=C(\C#N)C(=O)Nc2ccccn2)cc1`, the half-maximal activity concentration (AC50) under setting [1] was 6.31 µM [rising, single point].
Regarding `O=C(CCn1nc(-c2ccccc2)ccc1=O)N1CCCC1`, the concentration at half-maximal activity (AC50) under setting [1] was 16.4 µM [rising, partial curve].
For the compound `O=C1CC(c2cccc(Cl)c2)CC(O)=C1C=Nc1ccccc1` (stereo not drawn), the AC50 under setting [1] is 25.9 µM [rising, single point].
In the case of `CNCc1ccccc1Sc1ccc(O)c(O)c1`, the AC50 under setting [1] is 3.26 µM [rising, single point] and the AC50 under setting [2] was 6.51 µM [falling, partial curve, poor fit].
For `CSc1nncn1/N=C/c1ccc([N+](=O)[O-])cc1`, the AC50 under setting [1] was 22.4 µM [rising, single point].
For `Cc1nc(C)c(-c2csc(Nc3ccc(O)c(C(=O)O)c3)n2)s1`, the AC50 under setting [1] was 15.8 µM [falling, single point].
With `Cc1cc(C)nc(Nc2nc(-c3ccccc3)cs2)n1`, the AC50 under setting [1] is 1.58 µM [falling, full curve].
On to `COc1ccc(N=NC2C(=O)N(c3ccccc3)N=C2C)cc1` (stereo not drawn), for which the AC50 under setting [1] is 11.2 µM [falling, partial curve, poor fit].
The same measure, in the same setting: with `Cc1cccc(NC(=S)N(CCCN2CCOCC2)Cc2cn(C)c3ccccc23)c1` the figure was 7.31 µM [rising, partial curve, poor fit]; with `O=C(Nc1nnc(CSCc2ccc(Cl)cc2)s1)c1cccc([N+](=O)[O-])c1`, 2.31 µM [rising, single point]; with `COc1ccc(CC(=O)Nc2ccc(N3CCN(c4ccc(OC)cc4)CC3)c(C#N)c2)cc1`, 0.206 µM [rising, full curve, poor fit].
As to `CCCCOC(=O)Nc1ccc(C(C)C)cc1`, the AC50 under setting [1] is 0.184 µM [rising, partial curve, poor fit].
The same measure, in the same setting: with `COc1ccc(C)cc1N1CC(C(=O)OCc2nc(N)nc(Nc3ccccc3C)n2)CC1=O` (stereo not drawn) the figure was 29.1 µM [rising, single point].
Turning to `Cc1ccc(N(C)S(=O)(=O)c2cc3c(cc2C)NC(=O)CO3)cc1`, the AC50 under setting [1] was 12.6 µM [rising, partial curve, poor fit].
With `Cc1ccc(NC(NC(=O)Cc2ccccc2)C(Cl)(Cl)Cl)cc1` (stereo not drawn), the AC50 under setting [1] is 23.1 µM [falling, single point].
Take `O=C(COc1ccccc1)NCC(c1cccs1)S(=O)(=O)c1ccc(Cl)cc1` (stereo not drawn): the AC50 under setting [1] is 25.1 µM [falling, single point].
Still for that read-out and setting: as for `C[C@@H]1CC[C@]2(C(=O)O)CC[C@]3(C)C(=CCC4[C@@]5(C)CC[C@H](O)[C@@](C)(C(=O)O)C5CC[C@]43C)C2[C@]1(C)O` (stereo partly drawn), the figure is 32.6 µM [rising, partial curve, poor fit].
As for `O=C(Nc1ccccc1F)c1ccc(S(=O)(=O)N2CCCCCC2)cc1`, under setting [1], the AC50 is 18.4 µM [falling, partial curve].
Same read-out and setting: with `COc1ccc(N2CCN(C(=O)c3ccc(CS(=O)(=O)c4ccc(OC)cc4)o3)CC2)cc1` the figure was 23.1 µM [rising, single point]; with `CC(C)(C)c1ccc(/C=N/Nc2nncn2N)cc1`, 35.5 µM [falling, single point].
Take `CCCCn1nnc(NC(=O)CC23CC4CC(CC(C4)C2)C3)n1`: under setting [1], the AC50 was 29.1 µM [rising, single point].
On the same count and under the same terms, with `COc1cc(/C=C2\COC/C(=C\c3ccc(O)c(OC)c3)C2=O)ccc1O` the figure was 3.98 µM [falling, partial curve, poor fit]; with `Cc1cccc(OCc2nnc(NC(=O)c3cccs3)s2)c1`, 5.8 µM [rising, full curve, poor fit].
Take `O=C1/C(=C/c2cccc([N+](=O)[O-])c2)Oc2cc(O)ccc21`: the concentration at half-maximal activity (AC50) under setting [1] was 1.12 µM [rising, full curve, poor fit].
As to `COc1cccc(C(c2nnnn2Cc2ccco2)N2CCN(c3cccc(C)c3C)CC2)c1OC` (stereo not drawn), the concentration at half-maximal activity (AC50) under setting [1] is 35.5 µM [falling, single point].
Regarding `CC(=O)N1CCN(S(=O)(=O)c2ccc(S(=O)(=O)NCC(C)C)cc2)CC1`, the AC50 under setting [1] is 2.91 µM [falling, partial curve, poor fit].
Turning to `COc1ccc(NC(=O)CC(Cc2ccccc2)C(=O)O)cc1` (stereo not drawn), the AC50 under setting [1] was 29.1 µM [rising, single point].
Take `CC(CCN1CCC(n2nccc2NC(=O)c2ccccc2Cl)CC1)c1ccccc1` (stereo not drawn): the AC50 under setting [1] is 2.82 µM [falling, partial curve, poor fit].
With `CCCCn1c(Cc2ccccc2)n[nH]c1=S`, the AC50 under setting [2] is 16.4 µM [falling, partial curve, poor fit].
As for `COc1ccc(/C=N\NC(=O)c2ccccc2)cc1COc1ccc(F)cc1`, the AC50 under setting [1] is 8.91 µM [falling, partial curve, poor fit].
In the case of `COc1ccc(OCCNS(=O)(=O)c2ccccc2)cc1`, the AC50 under setting [1] was 15.8 µM [rising, partial curve, poor fit].
Take `CCOC(=O)C1=C(C)N=C2SCCC(=O)N2C1c1cccs1` (stereo not drawn): under setting [1], the AC50 is 10 µM [falling, partial curve, poor fit].
Still for that read-out and setting: with `C=CCOc1c(Br)cc(CNc2ccc(NC(=O)C(C)C)c(OC)c2)cc1OCC` the figure was 29.1 µM [rising, single point]; with `CCCn1c(N)c(N(CCOC)C(=O)COC(=O)c2ccccc2NCCO)c(=O)[nH]c1=O`, 13 µM [falling, partial curve].
`Cc1cc(C)cc(NS(=O)(=O)c2ccc(-c3cnc(C4CC4)o3)cc2)c1`: the AC50 under setting [1] was 7.08 µM [rising, partial curve] and the AC50 under setting [2] is 7.94 µM [falling, partial curve].
